Publication PMC3900635, “Transport Rankings of Non-Steroidal Antiinflammatory Drugs across Blood-Brain Barrier In Vitro Models” (PLoS ONE, 2014)

How the values were obtained:
ECV304 cell layers = details: human
Description: (§1) All solutions were prepared under sterile conditions.
(§2) For quantification of NSAIDs a reverse-phase high-performance liquid chromatography (RP-HPLC) system from Shimadzu was used (DGV-20A5/prominence Degasser, SIL – 20AC/prominence Auto Sampler, CTO – 20AC/prominence Column Oven, SPD – 20A/prominence UV detector, CMB – 20A/prominence Communications Bus Module). […] Before analysis proteins of samples were precipitated with ice-cold methanol or acetonitril depending on mobile phase composition and supernatants were analyzed. Data aquisition and analysis were performed by LC-Solution software (Shimadzu Handelsgesellschaft, Austria). Substances were analysed in triplicates with a injection volume of 20–50 µL.Varying mixtures of methanol, acetonitrile, and 10 mM potassium buffer (pH = 2.5 for all analysis except pH = 3.5 for single studies with celecoxib) were used as mobile phase.
(§3) Permeability coefficients were calculated following the clearance principle as described recently. Results of blank value experiments were included into permeability coefficient calculation by using reciprocal correlation shown in equation (1):
(§4) 1/PEcell = 1/PEall – 1/PEblank (1)
(§5) PEblank refers to the permeability coefficient without cell layer, PEall represents the permeability coefficient through membrane insert and the cell layer and PEcell is the permeability coefficient only through the cell layer.

in vitro = details: rat
Description: as §1, §2, §3, §4, §5

[1] = tested on: primary rat brain microvascular endothelial cells (RBMEC); assay: in vitro
Description: as §1, §2, §3, §4, §5

CN1C(=O)CN=C(c2ccccc2)c2cc(Cl)ccc21 [Diazepam, diazepam]
PEall (ECV304 cell layers): 13.26±0.05 µm/min | Papp (in vitro): 69.9 ×10⁻⁶ cm/s | PSblank [1]: 1.93 ± 0.13 µL/min | PEall ([1]; rat): 14.35±0.20 µm/min | PScell ([1]; rat): 3.77 ± 0.16 µL/min
